US20100138945A1 (FEMTA PHARMACEUTICALS, published 2010)
Results are given in words; binding and its absence hold for the method and conditions named. Some entries that bind do so weakly or less than the wild type.

Chains of the proteins cited; added tags and fusions are not shown. Residues count along the entry.
UniProt P05231, residues 30-212: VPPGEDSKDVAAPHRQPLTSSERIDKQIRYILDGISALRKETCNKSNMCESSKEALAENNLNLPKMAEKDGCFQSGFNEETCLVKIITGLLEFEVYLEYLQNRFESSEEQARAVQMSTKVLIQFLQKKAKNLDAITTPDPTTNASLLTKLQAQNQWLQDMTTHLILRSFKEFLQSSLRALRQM

Tests used:
[1] = molecular target: T1, human IL-6 (Interleukin-6) (human, UniProt P05231 30-212); test: competition ELISA: human IL-6 coated at 0.2 µg/ml, unlabelled antibody titrated against 0.05 µg/ml biotinylated BA001, anti-biotin-HRP, OD450
T1 construct: also called 001 IL-6 antigen

[2] = molecular target: T1, human IL-6 (Interleukin-6); test: competition ELISA on plate-coated IL-6; competitor of biotinylated 001
[3] = molecular target: T1, human IL-6 (Interleukin-6); test: specific activity: affinity ELISA on IL-6 divided by quantitation ELISA, normalized to BA399 = 1
Method: 200 μl washing solution (0.05% Tween-20 in PBS) was added and shaken at 200 RPM for 5 min at room temperature. The plates were emptied and residual liquid tapped out on paper towels. 200 μl blocking solution (2% Carnation milk in PBS) was added and shaken at 200 RPM for one hour at room temperature. Plates were emptied and residual liquid tapped out on paper towels. 100 μl of diluted samples for ELISA was used. The samples were shaken at 200 RPM for one hour at room temperature; plates emptied and residual liquid tapped out on paper towels. 200 μl washing solution (0.05% Tween-20 in PBS) was added, shaken at 200 RPM for 5 min at room temperature; plates emptied and residual liquid tapped out on paper towels. This process was repeated three times. 100 μl of 1:2500 dilution of anti-human IgG conjugated with HRP diluted in block solution (2% Carnation milk in PBS) was added for 001 samples. 100 μl of 1:2500 dilution of anti-rabbit IgG conjugated with HRP diluted in block solution (2% Carnation milk in PBS) was added for control antibody. The contents were shaken at 200 RPM for one hour at room temperature, plates emptied and residue liquid tapped out on paper towels. 200 μl washing solution (0.05% Tween-20 in PBS) was added, shaken at 200 RPM for 5 min at room temperature; plates emptied and residual liquid tapped out on paper towels. This process was repeated three times. 100 μl TMB substrate solution was added, and incubated at room temperature. The reaction was stopped with 1 N HCl, and the plate read at 450 nm.
This ELISA was used for determining the expression level of antibodies in cell culture supernatant. […] Covered with plate sealer and incubated at 4° C. overnight. Emptied plate and tapped out residual liquid on paper towels. Added 200 μl washing solution (0.05% Tween-20 in PBS). Shaken at 200 RPM for 5 min at room temperature. Emptied plate and tapped out residual liquid on paper towels. Added 200 μl blocking solution (2% Carnation milk in PBS). Shaken at 200 RPM for one hour at room temperature. Emptied plate and tapped out residual liquid on paper towels. Used 100 μl of diluted sample for ELISA. 20 ng/ml of human IgG and 1:2 dilution thereafter was used for standards.

Binder | binding [1] | binding [2] | binding [3]
Anti-IL-6 Ab BA808 (antibody, V domains shown, Humanized monoclonal antibody) VH: QVQLVQSGAEVKKPGASVKVSCKASGFTFSSFAMSWIRQSPSRGLEWLGEISSGGSYTYYPDTVTGRFTISRDNAKNSLYLQMNSLRAEDTAVYYCARGLWGYYALDYWGQG VL: EIVLTQSPATLSVSPGERATLSCSASSSVSYMYWYLQKPGQSPQLLIYDTSNLASGIPPRFSGSGYGTDFTLTINNIESEDAAYYFCQQWSGYPYTFGQG | binds | binds | –
Anti-IL-6 Ab BA802 (antibody, V domains shown, Humanized monoclonal antibody) VH: QVQLVQSGAEVKKPGASVKVSCKASGFTFSSFAMSWIRQSPSRGLEWLGEISSGGSYTYYPDTVTGRFTISRDNAKNSLYLQMNSLRAEDTAVYYCARGLWGYYALDYWGQG VL: EIVLTQSPDFQSVTPKEKVTITCSASSSVSYMYWYLQKPGQSPQLLIYDTSNLASGVPSRFSGSGSGTDFTLTISSLQPEDFATYYCQQWSGYPYTFGQG | binds | binds | –
Anti-IL-6 Ab BA840 (antibody, V domains shown, Humanized monoclonal antibody) VH: QVQLVQSGAEVKKPGASVKVSCKASGFTFSSFAMSWIRQPPGKGLEWIGEISSGGSYTYYPDTVTGRFTISRDNAKNSLYLQMNSLRAEDTAVYYCARGLWGYYALDYWGQG VL: EIVLTQSPDFQSVTPKEKVTITCSASSSVSYMYWYLQKPGQSPQLLIYDTSNLASGIPPRFSGSGYGTDFTLTINNIESEDAAYYFCQQWSGYPYTFGQG | binds | binds | –
Anti-IL-6 Ab BA939 (antibody, V domains shown, Humanized monoclonal antibody) VH: QVQLVQSGAEVKKPGASVKVSCKASGFTFSSFAMSWVRQAPGQGLEWMGEISSGGSYTYYPDTVTGRFTISRDNAKNSLYLQMNSLRAEDTAVYYCARGLWGYYALDYWGQG VL: DIQMTQSPSSLSASVGDRVTITCSASSSVSYMYWYQQKPGQAPRLLIYDTSNLASGIPPRFSGSGYGTDFTLTINNIESEDAAYYFCQQWSGYPYTFGQG | – | binds | –
Anti-IL-6 Ab BA890 (antibody, V domains shown, Humanized monoclonal antibody) VH: QVQLVQSGAEVKKPGASVKVSCKASGFTFSSFAMSWIRQPPGKGLEWIGEISSGGSYTYYPDTVTGRFTISRDNAKNSLYLQMNSLRAEDTAVYYCARGLWGYYALDYWGQG VL: AIQLTQSPSSLSASVGDRVTITCSASSSVSYMYWYQQKPGQAPRLLIYDTSNLASGIPPRFSGSGYGTDFTLTINNIESEDAAYYFCQQWSGYPYTFGQG | binds | binds | –
Anti-IL-6 Ab BA848 (antibody, V domains shown, Humanized monoclonal antibody) VH: EVQLVQSGAEVKKPGASVKVSCKASGFTFSSFAMSWVRQAPGQGLEWMGEISSGGSYTYYPDTVTGRFTISRDNAKNSLYLQMNSLRAEDTAVYYCARGLWGYYALDYWGQG VL: AIQLTQSPSSLSASVGDRVTITCSASSSVSYMYWYQQKPGQAPRLLIYDTSNLASGIPPRFSGSGYGTDFTLTINNIESEDAAYYFCQQWSGYPYTFGQG | binds | binds | –

More lines, now with the values ahead:

binding [1] | binding [2] | binding [3] | Binder
– | – | binds | BA399_CPS_08 (antibody, V domains shown) VH: QVQLVQSGAEVKKPGASVKVSCKASGFTFSSFSMSWIRQSPSRGLEWLGEISSGGSYTYYPDTKTGRFTISRDNAKNSLYLQMNSLRAEDTAVYYCARGLWGYYALDYWGQG VL: AIQLTQSPSSLSASVGDRVTITCYASSSVSYMYWYQQKPGQAPRLLIYDTSNLASGIPPRFSGSGYGTDFTLTINNIESEDAAYYFCQDWSGYPYTFGQG
– | – | binds | BA399_CPS_07 (antibody, V domains shown) VH: QVQLVQSGAEVKKPGASVKVSCKASHFTFSSFSMSWIRQSPSRGLEWLGEISSGGSYTYYPDTVTGRFTISRDNAKNSLYLQMNSLRAEDTAVYYCARGQWGYYALDYWGQG VL: AIQLTQSPSSLSASVGDRVTITCSASSSVSYMYWYQQKPGQAPRLLIYSTLNLASGIPPRFSGSGYGTDFTLTINNIESEDAAYYFCQQWSGYPYTFGQG
– | – | binds | Clone BA399-09 (antibody, V domains shown, also called BA399-9; BA399 clone #9) VH: QVQLVQSGAEVKKPGASVKVSCKASGFTFSSFSMSWIRQSPSRGLEWLGEISSGGSYHYYPDTVTGRFTISRDNAKNSLYLQMNSLRAEDTAVYYCARGQWGYYALDYWGQG VL: AIQLTQSPSSLSASVGDRVTITCYASSSVSYMYWYQQKPGQAPRLLIYDTLNLASGIPPRFSGSGYGTDFTLTINNIESEDAAYYFCQQWSGYPYTFGQG
– | – | binds | BA399_CPS_10 (antibody, V domains shown, also called Clone BA399-10; BA399_10) VH: QVQLVQSGAEVKKPGASVKVSCKASHFTFSSFSMSWIRQSPSRGLEWLGEISSGGSYHYYPDTVTGRFTISRDNAKNSLYLQMNSLRAEDTAVYYCARGQWGYYALDYWGQG VL: AIQLTQSPSSLSASVGDRVTITCYASSSVSYMYWYQQKPGQAPRLLIYDTLNLASGIPPRFSGSGYGTDFTLTINNIESEDAAYYFCQQWSGYPYTFGQG
